Reference: patent EP4410284A1, “COMPOUND AND METHOD FOR THE TREATMENT OF ZELLWEGER SPECTRUM DISORDER” (Apteeus, priority 2023, dated 2024)

Test system: GM16513 cells
Assay: Catalase import immunofluorescence, high-content screening (% importing cells)
Assay type: cell-based
Settings: Homo sapiens, 72 h, dose response with 6 concentrations, 3 days

O=C(CCCCCCC(=O)Nc1ccccc1)NO [Vorinostat]
EC50: 1090 nM
